Measured values from paper PMC10000386.
No constants are given. Whether binding was seen depends on the method and setting. In cells and extracts the contact can be indirect. Some binding calls cover weakened binding; strength is not graded here.

Protein sequences, listed by entry. Tags and fused reporters are not part of them. Lines headed by an entry give the natural chain unless they say otherwise; changes in a name come on top.
UniProt Q07812: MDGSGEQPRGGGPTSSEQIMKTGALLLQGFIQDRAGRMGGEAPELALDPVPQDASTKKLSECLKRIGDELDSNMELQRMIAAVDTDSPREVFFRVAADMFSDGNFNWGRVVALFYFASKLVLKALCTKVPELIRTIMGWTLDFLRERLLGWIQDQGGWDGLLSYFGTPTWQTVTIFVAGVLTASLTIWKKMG
UniProt Q07817: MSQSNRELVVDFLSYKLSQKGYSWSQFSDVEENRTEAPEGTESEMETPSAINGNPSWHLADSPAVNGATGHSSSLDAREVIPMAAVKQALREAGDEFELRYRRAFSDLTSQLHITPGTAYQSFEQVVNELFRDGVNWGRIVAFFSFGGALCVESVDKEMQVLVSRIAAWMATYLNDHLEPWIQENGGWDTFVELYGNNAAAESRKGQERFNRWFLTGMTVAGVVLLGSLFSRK

T1: Bak (human), Q16611
T1 chain: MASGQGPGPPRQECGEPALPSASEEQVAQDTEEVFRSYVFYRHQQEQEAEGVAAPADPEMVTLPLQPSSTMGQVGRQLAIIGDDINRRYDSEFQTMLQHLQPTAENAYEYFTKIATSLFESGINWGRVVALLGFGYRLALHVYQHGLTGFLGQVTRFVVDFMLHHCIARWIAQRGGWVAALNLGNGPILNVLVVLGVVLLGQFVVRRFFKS

T2: Bak (human) (UniProt Q16611)
T2 sequence: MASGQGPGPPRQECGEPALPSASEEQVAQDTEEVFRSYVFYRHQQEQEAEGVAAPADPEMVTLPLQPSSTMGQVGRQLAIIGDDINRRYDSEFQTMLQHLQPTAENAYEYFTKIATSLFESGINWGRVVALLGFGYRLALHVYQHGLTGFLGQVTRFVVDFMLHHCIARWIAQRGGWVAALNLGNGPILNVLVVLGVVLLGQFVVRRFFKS


How the values were obtained:
Bax (human), Q07812 [1] = assay: split reporter; BiFC: VN- and VC-Venus fragment fusions (N-terminal) co-transfected in HeLa cells with an mRFP vector, 30 µM Z-VAD-fmk, 37 °C, 24 h; Venus/mRFP mean fluorescence ratio of mRFP-positive cells by flow cytometry; in some experiments ABT-199, A-1155463 or S63845 added 1 h after transfection (reduced the complexes of Bcl-2, Bcl-XL or Mcl-1 with Bim, Puma and Noxa); details: remark: other sources report otherwise
Bak (human), Q16611 [2] = target: T1, Bak (human), Q16611; assay: as above; details: remark: other sources report otherwise
Bax (human), Q07812 [3] = assay: split reporter; multicolour BiFC competition: HeLa cells transfected at once with three pBiFC vectors (CN-, VN- and CC-fusions) and an mRFP vector; Cerulean and Venus fluorescence of mRFP-positive cells by flow cytometry 24 h after transfection; details: remark: other sources report otherwise
Bak (human), Q16611 [4] = target: T1, Bak (human), Q16611; assay: as above; details: remark: other sources report otherwise
Mcl-1 (human), Q07820 = assay: split reporter; BiFC: VN- and VC-Venus fragment fusions (N-terminal) co-transfected in HeLa cells with an mRFP vector, 30 µM Z-VAD-fmk, 37 °C, 24 h; Venus/mRFP mean fluorescence ratio of mRFP-positive cells by flow cytometry; in some experiments ABT-199, A-1155463 or S63845 added 1 h after transfection (reduced the complexes of Bcl-2, Bcl-XL or Mcl-1 with Bim, Puma and Noxa); details: remark: other sources report otherwise
Bcl-2 (human), P10415 = assay: as above; details: remark: other sources report otherwise
Bax K21E (human) = Bax K21E (human) (UniProt Q07812); assay: as above
Bax D33A (human) = Bax D33A (human) (UniProt Q07812); assay: as above
Bcl-XL (human) = Bcl-XL (human) (UniProt Q07817); assay: as above
Bak (human) = target: T2, Bak (human); assay: as above

Binder | binding (Bax (human), Q07812 [1]) | binding (Bak (human), Q16611 [2]) | binding (Bax (human), Q07812 [3]) | binding (Bak (human), Q16611 [4]) | other results
Puma, Q9BXH1 1-193 (protein) MARARQEGSSPEPVEGLARDGPRPFPLGRLVPSAVSCGLCEPGLAAAPAAPTLLPAAYLCAPTAPPAVTAALGGSRWPGGPRSRPRGPRPDGPQPSLSLAEQHLESPVPSAPGALAGGPTQAAPGVRGEEEQWAREIGAQLRRMADDLNAQYERRRQEEQQRHRPSPWRVLYNLIMGLLPLPRGHRAPEMEPN | binds | binds | binds | binds | –
Noxa, Q13794 1-54 (protein) MPGKKARKNAQPSPARAPAELEVECATQLRRFGDKLNFRQKLLNLISKLFCSGT | binds | binds | binds | binds | binding (Mcl-1 (human), Q07820): binds; binding (Bcl-2 (human), P10415): binds
Noxa (protein, UniProt Q13794 1-54) MPGKKARKNAQPSPARAPAELEVECATQLRRFGDKLNFRQKLLNLISKLFCSGT | – | – | – | – | binding (Bax K21E (human)): binds; binding (Bax D33A (human)): binds; binding (Bcl-XL (human)): binds weakly
Bak, Q16611 1-211 (protein) MASGQGPGPPRQECGEPALPSASEEQVAQDTEEVFRSYVFYRHQQEQEAEGVAAPADPEMVTLPLQPSSTMGQVGRQLAIIGDDINRRYDSEFQTMLQHLQPTAENAYEYFTKIATSLFESGINWGRVVALLGFGYRLALHVYQHGLTGFLGQVTRFVVDFMLHHCIARWIAQRGGWVAALNLGNGPILNVLVVLGVVLLGQFVVRRFFKS | – | binds | – | – | –
Bak H164A (protein, UniProt Q16611 1-211) MASGQGPGPPRQECGEPALPSASEEQVAQDTEEVFRSYVFYRHQQEQEAEGVAAPADPEMVTLPLQPSSTMGQVGRQLAIIGDDINRRYDSEFQTMLQHLQPTAENAYEYFTKIATSLFESGINWGRVVALLGFGYRLALHVYQHGLTGFLGQVTRFVVDFMLAHCIARWIAQRGGWVAALNLGNGPILNVLVVLGVVLLGQFVVRRFFKS | – | – | – | – | binding (Bak (human)): binds
